{
  "source": "patent US20200253929A1",
  "about": "“TREATMENT OF EPILEPSY” (priority 2017, published 2020)",
  "tested_on": "NMRI mice",
  "assay": "Mouse 6-Hz (44 mA) psychomotor seizure model",
  "format": "in vivo",
  "details": "300 mg/kg i.p., 30 min before electrical stimulation",
  "from_the_text": "Although the zebrafish model has a high degree of genetic, physiological and pharmacological conservation^13, it is more distinct from humans than mammals. Therefore, we were interested to see if the observed antiseizure properties of azaspirofuran A and pseurotin A2 would translate to a rodent model. The mouse 6-Hz (44 mA) psychomotor seizure model was chosen, because it can detect compounds with novel antiseizure mechanisms and with potential against drug-resistant seizures [Barton et al. (2001) Epilepsy Res 47, 217-227; Wilcox et al. (2013) Epilepsia 54 S4, 24-34]. […]\nExperimental procedure was described in Copmans et al. (2018) Neurochem. […] Following electrical current stimulation, the mouse was released in a transparent cage for behavioral observation, which was video-recorded. […] Seizure durations were measured during the experiment by experienced researchers, familiar with the different seizure behaviors. In addition, seizure durations were determined by blinded video analysis to confirm or correct the initial observations. Data are expressed as mean±SD.",
  "note": "For at least one compound, name, drawing or mass did not settle the structure.",
  "data": [
    {"smiles": "CCCC(CCC)C(=O)O", "note": "[valproate, reference compound]", "values": [
      {"measurement": "mice protected against induced seizures", "result": "protected all mice"}
    ]}
  ]
}
